Earlier results in US11464736B2, “Thermally gelling drug formulations” (UNM Rainforest Innovations, priority 2019, dated 2022).
At least one structure is not confirmed: it was looked up by name or label, or the drawing left a doubt.

CCC(C)n1ncn(-c2ccc(N3CCN(c4ccc(OCC5COC(Cn6cncn6)(c6ccc(Cl)cc6Cl)O5)cc4)CC3)cc2)c1=O (stereo not shown) [ITZ, Itraconazole]
Biopharmaceutical Classification System (BCS) class: Class II
